Results are given in words; binding and its absence hold for the method and conditions named. Some entries that bind do so weakly or less than the wild type.

The chains behind the UniProt entries cited, without tags or fusion partners. Where a name states a change or a piece, a line headed by the entry shows the natural chain unless it says otherwise.
UniProt P08514: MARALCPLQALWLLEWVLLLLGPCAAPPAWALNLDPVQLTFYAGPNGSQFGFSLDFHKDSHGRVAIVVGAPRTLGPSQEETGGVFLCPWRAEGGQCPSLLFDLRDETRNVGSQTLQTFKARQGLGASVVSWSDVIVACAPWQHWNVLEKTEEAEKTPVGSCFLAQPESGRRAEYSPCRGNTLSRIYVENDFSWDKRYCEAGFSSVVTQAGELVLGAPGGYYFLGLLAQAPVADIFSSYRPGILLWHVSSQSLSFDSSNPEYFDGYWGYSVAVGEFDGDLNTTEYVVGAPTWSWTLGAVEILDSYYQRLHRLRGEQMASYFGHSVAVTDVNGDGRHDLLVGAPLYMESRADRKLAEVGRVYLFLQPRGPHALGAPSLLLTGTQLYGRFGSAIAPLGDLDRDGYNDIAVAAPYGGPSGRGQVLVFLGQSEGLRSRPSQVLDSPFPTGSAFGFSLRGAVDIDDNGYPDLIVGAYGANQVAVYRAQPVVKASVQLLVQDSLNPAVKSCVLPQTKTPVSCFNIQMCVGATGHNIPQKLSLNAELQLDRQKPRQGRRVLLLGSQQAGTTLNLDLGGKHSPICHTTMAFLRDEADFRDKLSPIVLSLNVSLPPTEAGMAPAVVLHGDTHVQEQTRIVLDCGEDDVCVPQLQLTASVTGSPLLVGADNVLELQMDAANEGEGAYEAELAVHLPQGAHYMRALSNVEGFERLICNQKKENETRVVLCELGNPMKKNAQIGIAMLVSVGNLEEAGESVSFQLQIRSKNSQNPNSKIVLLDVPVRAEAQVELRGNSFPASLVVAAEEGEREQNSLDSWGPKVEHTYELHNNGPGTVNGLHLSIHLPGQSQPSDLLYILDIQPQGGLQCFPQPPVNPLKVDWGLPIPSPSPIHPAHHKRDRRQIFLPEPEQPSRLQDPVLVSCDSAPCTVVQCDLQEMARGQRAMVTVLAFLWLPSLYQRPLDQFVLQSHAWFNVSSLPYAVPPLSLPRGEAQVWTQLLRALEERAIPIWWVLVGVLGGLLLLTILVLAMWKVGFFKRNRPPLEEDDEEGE
UniProt P05106: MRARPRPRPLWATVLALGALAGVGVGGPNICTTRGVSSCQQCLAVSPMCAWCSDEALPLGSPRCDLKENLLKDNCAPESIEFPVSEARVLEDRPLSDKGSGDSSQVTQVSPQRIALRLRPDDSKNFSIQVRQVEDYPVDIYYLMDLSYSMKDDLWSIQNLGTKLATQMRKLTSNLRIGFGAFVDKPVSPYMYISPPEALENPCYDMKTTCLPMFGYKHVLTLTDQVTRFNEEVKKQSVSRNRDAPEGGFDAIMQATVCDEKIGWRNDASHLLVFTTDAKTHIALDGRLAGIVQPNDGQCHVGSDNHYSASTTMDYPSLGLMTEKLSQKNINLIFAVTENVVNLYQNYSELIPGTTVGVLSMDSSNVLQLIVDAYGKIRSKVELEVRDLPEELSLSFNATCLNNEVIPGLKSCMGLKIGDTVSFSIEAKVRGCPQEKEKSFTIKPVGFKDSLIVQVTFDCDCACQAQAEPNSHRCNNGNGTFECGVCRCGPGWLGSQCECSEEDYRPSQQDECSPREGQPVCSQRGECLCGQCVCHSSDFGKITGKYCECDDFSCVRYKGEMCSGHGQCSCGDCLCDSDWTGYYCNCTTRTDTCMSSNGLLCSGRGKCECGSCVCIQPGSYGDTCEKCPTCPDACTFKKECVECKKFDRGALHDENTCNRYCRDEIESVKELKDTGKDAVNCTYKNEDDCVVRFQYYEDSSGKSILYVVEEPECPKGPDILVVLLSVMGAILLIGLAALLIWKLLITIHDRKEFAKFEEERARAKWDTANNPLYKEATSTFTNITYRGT

From publication PMC5974921 come the findings set out here.

The assay deals with integrin αIIbβ3 on platelets (human (endogenous in platelets)) (UniProt P08514+P05106). Briefly: static platelet adhesion assay; washed platelets pre-incubated with antagonist peptides (cRGD 10 μM, RGDS 100 μmol L^-1) before adhesion to coated proMMP-13; only the binder purified.

Regarding CRGDFPASSC (cyclic) [cyclic RGD (H‐Cys‐Arg‐Gly‐Asp‐Phe‐Pro‐Ala‐Ser‐Ser‐Cys‐OH)], the binding entry is reported as “binds”.
